Several values for one entry are separate records, joined by “and”; a condition that tells them apart may be missing. Equal values may be shown once. Screen size: about 300,000 compounds; about 5,400 (1.8%) were called active. This list was built around the results that the source calls inconclusive (neither active nor inactive); the mix of calls is not that of the screen. Calls follow the shape of the full dose curve; tested in HEK293 cells. Potencies beside an inconclusive call are fits to weak or partial responses and may not hold up.
Assay: qHTS for inhibitors of binding or entry into cells for Marburg Virus
Conditions: Marburg virus pseudotyped entry inhibition, cell reporter; activity change, negative = inhibition: at 37.8 µM (top of the series) unless noted
% is scaled to controls: 0 for no effect and ±100 for the full control effect; potency is read from the fitted curve at half-maximal effect.

| Compound | Potency | activity change, negative = inhibition |
| --- | --- | --- |
| CCNC(=S)N(CCc1c(C)[nH]c2ccc(C)cc12)Cc1cccnc1 | inconclusive: 20 µM [inhibitor, single point] |  |
| CCOc1ccc(S(=O)(=O)NCCC(=O)N(C)CC(=O)Nc2ccc(N3CCOCC3)cc2)cc1 | inconclusive: 17.8 µM [activator, single point] |  |
| CCOC(=O)c1c(C)[nH]c(C)c1C(=O)COC(=O)c1c(OC)cccc1OC | inconclusive: 14.6 µM [inhibitor, single point] |  |
| O=C(COc1cc(=O)n2c(n1)SCCC2)c1ccccc1 | inconclusive: 3.98 µM [activator, partial curve, poor fit] |  |
| O=C1CC(C(=O)Nc2ccc(F)c(Cl)c2)N=C(N2CCCCC2)N1 (stereo not given) | inconclusive: 6.51 µM [inhibitor, single point] |  |
| Cc1ccc(OCC(O)CNC2CCCC2)cc1C (stereo not given) | inconclusive: 11.2 µM [inhibitor, partial curve, poor fit] |  |
| CC1(C)CC(=O)C(N=Nc2ccc(Br)cc2)=C(O)C1 |  | inactive: 11.2% [at 46.1 µM] |
| CC1=NCCN1S(=O)(=O)c1c(C(C)C)cc(C(C)C)cc1C(C)C | inconclusive: 22.4 µM [inhibitor, single point] |  |
| COc1ccc(NC(=O)CNC(=O)CC23CC4CC(CC(C4)C2)C3)c(OC)c1 | inconclusive: 6.31 µM [inhibitor, partial curve, poor fit] |  |
| CC1Cc2ccccc2N1C(=O)c1cc2c(=O)n3ccccc3nc2n1C (stereo not given) | inconclusive: 29.1 µM [inhibitor, single point] |  |
| CCOC(=O)c1ccc(NC(=O)C2CCN(C(=O)c3ccc(OC)c(OC)c3)CC2)cc1 | inconclusive: 10 µM [inhibitor, partial curve, poor fit] |  |
| COc1cc(C(=O)NCCC(=O)NCCCN2CCCCC2C)cc(OC)c1OC (stereo not given) | inconclusive: 0.651 µM [activator, partial curve, poor fit] |  |
| Cc1ccc(NC(=S)NC2CCSc3ccccc32)cc1C (stereo not given) | inconclusive: 17.8 µM [inhibitor, single point] |  |
| CCn1c(C(=O)N2CCC(C(=O)N3CCN(c4cccc(C)c4C)CC3)CC2)cc2sccc21 | inconclusive: 35.5 µM [inhibitor, single point] |  |
| CCN(CC)CC#CC(O)(c1ccccc1)c1ccccc1 | inconclusive: 22.4 µM [inhibitor, single point] |  |
| Cc1cccc(C)c1NC(=O)Cn1nnc(-c2ccc(N3CCOCC3)cc2)n1 | inconclusive: 29.1 µM [inhibitor, single point] |  |
| CN(CC(=O)Nc1ccccc1Br)C(=O)c1ccc(-c2ccc(Cl)cc2)o1 | inconclusive: 28.2 µM [inhibitor, single point] |  |
| O=C(CN(c1ccc(Br)cc1)S(=O)(=O)c1ccc(Cl)c([N+](=O)[O-])c1)NCC1CCCO1 (stereo not given) | inconclusive: 17.8 µM [inhibitor, single point] |  |
| CC(C)c1ccc(N(CC(=O)NCCc2ccccc2)C(=O)c2csnn2)cc1 | inconclusive: 12.6 µM [inhibitor, partial curve, poor fit] |  |
| Cc1cc(N2CCN(c3ccccc3Cl)CC2)n2cc(-c3ccccc3)nc2n1 | inconclusive: 8.2 µM [inhibitor, partial curve] |  |
| CNS(=O)(=O)c1cc(N)ccc1C |  | inactive: 1.1% [at 46.1 µM] |
| N#Cc1c(NC(=S)NC(=O)c2ccccc2)sc2c1CCCC2 | inconclusive: 1.3 µM [activator, partial curve, poor fit] |  |

| Compound | Potency | activity change, negative = inhibition |
| --- | --- | --- |
| CCOC(=O)C1CCN(S(=O)(=O)c2ccc(OC)c(C(=O)N3CCCCC3)c2)CC1 |  | inactive: -27.3% [at 46.1 µM] |
| CCOc1ccc(OCC)c(NC(=O)C2CCCN(S(=O)(=O)c3ccc4c(c3)oc(=O)n4C)C2)c1 (stereo not given) |  | inactive: 12.6% [at 46.1 µM] |
| COc1cccc(/C=N/NC(=O)CNC(=O)c2cccs2)c1O | inconclusive: 35.5 µM [inhibitor, single point] |  |
| COc1ccc(Cn2c(C3CC3)nc3ccc(NC(C)=O)cc3c2=O)cc1 | inconclusive: 20 µM [inhibitor, single point] |  |
| CCn1c(SCc2nc3ccccc3s2)nnc1-c1ccccc1 |  | inactive: -2.89% |
| CCN1C2=C(CCCC2)S/C1=C/C(=S)NC1CCCCC1 | inconclusive: 35.5 µM [inhibitor, single point] |  |
| O=C(Cc1ccccc1)Nc1ccc(S(=O)(=O)N2CCOCC2)cc1 | inconclusive: 35.5 µM [activator, partial curve, poor fit] |  |
| Cc1ccc(NC(=O)C2CCCN(C(=O)c3ccc(Cl)cc3)C2)cc1 (stereo not given) | inconclusive: 12.6 µM [inhibitor, partial curve, poor fit] |  |
| C#CCN(C)Cc1ccccc1 | inactive and inconclusive: 20 µM [activator, single point] |  |
| CCNc1c([N+](=O)[O-])ncn1C | inconclusive: 5.62 µM [inhibitor, single point] |  |
| Cc1ccc(-c2nc(NCc3ccco3)n(C(=O)c3ccco3)n2)cc1 | inconclusive: 0.112 µM [inhibitor, full curve, poor fit] |  |
| CCCCCCOC(=O)C[N+](C)(C)CCOC1CC2CCC1(C)C2(C)C (stereo not given) | inactive |  |
| CC(=O)N1CCN(c2ccc(Oc3ncnc4sccc34)cc2)CC1 |  | inactive: 2.07% |
| COC(=O)c1ccccc1NC(=O)c1nc2nc(C)cc(C)n2n1 |  | inactive: 21.8% |
| COc1ccc(CN(C(=O)c2snc(C(N)=O)c2N)C(CC(C)C)C(=O)NC2CCCCC2)cc1 (stereo not given) | inconclusive: 35.5 µM [inhibitor, single point] |  |
| O=C(Nc1ccncc1)c1cc2ccccc2cc1O | inconclusive: 11.2 µM [inhibitor, partial curve, poor fit] |  |
| COc1cccc(N2CCN(C(=O)C3CCCN(S(=O)(=O)c4ccc(Br)s4)C3)CC2)c1 (stereo not given) | inconclusive: 10 µM [inhibitor, partial curve, poor fit] |  |
| Cc1c(NC(=O)c2nc3ccccc3n(C)c2=O)cccc1[N+](=O)[O-] |  | inactive: 6.78% [at 46.1 µM] |
| C/C(=N\OCc1cccc(C(=O)O)c1)c1ccc(Cl)cc1 | inconclusive: 1 µM [inhibitor, full curve, poor fit] |  |
| O=C(Nc1nc(-c2cc(Cl)sc2Cl)cs1)c1ccccc1 | inconclusive: 0.651 µM [inhibitor, partial curve, poor fit] |  |
| COc1cccc(NC(=O)COC(=O)c2c3c(nc4ccccc24)CCC(C)C3)c1 (stereo not given) | active: 7.3 µM |  |
| CCOc1ccc2cc(C3CC(c4ccco4)=NN3S(=O)(=O)c3ccccc3)c(Cl)nc2c1 (stereo not given) |  | inactive: 8.35% |

In a second layout: three of the compounds above.
Compound | Potency | activity change, negative = inhibition
CCn1c(SCc2nc3ccccc3s2)nnc1-c1ccccc1 |  | inactive: -2.89%
CCN1C2=C(CCCC2)S/C1=C/C(=S)NC1CCCCC1 | inconclusive: 35.5 µM [inhibitor, single point] | 
O=C(Cc1ccccc1)Nc1ccc(S(=O)(=O)N2CCOCC2)cc1 | inconclusive: 35.5 µM [activator, partial curve, poor fit] | 

Remaining list, next part

| Compound | Potency | activity change, negative = inhibition |
| --- | --- | --- |
| CN1CCC2(CC1)N=C(c1ccc(F)cc1)C(=S)N2C(=O)c1ccccc1 | inconclusive: 35.5 µM [inhibitor, single point] |  |
| CCOC(=O)c1ccc(N2CCN(C(=O)c3ccccc3)CC2)c(NC(=O)c2ccco2)c1 | inconclusive: 12.6 µM [inhibitor, partial curve, poor fit] |  |
| COc1ccc(-n2nnnc2-c2cccnc2)cc1 | inconclusive: 14.1 µM [inhibitor, single point] |  |
| Cc1cccc(Nc2nc(-c3ccccc3)c(C(=O)Nc3cccnc3)s2)c1 | inconclusive: 14.1 µM [inhibitor, partial curve, poor fit] |  |
| CCOc1cc(NC(=S)NCC2CCCO2)c(OCC)cc1NC(=O)c1ccccc1F (stereo not given) | inconclusive: 14.1 µM [inhibitor, partial curve, poor fit] |  |
| CC1=C/C(=C\c2ccc3c(c2)OCO3)C(=O)S1 | inconclusive: 0.0891 µM [inhibitor, full curve, poor fit] |  |
| CCn1nc(C)c(NC(=O)c2cnn3c(C(F)F)cc(-c4ccccc4)nc23)c1C | inconclusive: 11.2 µM [inhibitor, partial curve, poor fit] |  |
| O=C(Cc1sc(-c2ccccc2)nc1-c1ccccc1)Nc1ccccc1 |  | inactive: -14.7% |
| CCCOc1ccc(/C=C/C(=O)Nc2ccc([N+](=O)[O-])cc2C)cc1OC | inconclusive: 23.1 µM [inhibitor, single point] |  |
| CCOC(=O)C1(Cc2cccc(OC)c2)CCN(Cc2ccccc2)CC1 | inconclusive: 6.31 µM [inhibitor, full curve, poor fit] |  |
| Cc1ccc(N2C(=O)C3C4C=CC(CNC(=S)Nc5ccc(Cl)cc5)(O4)C3C2=O)cc1 (stereo not given) | inconclusive: 35.5 µM [inhibitor, single point] |  |
| Cc1ccc(C(=O)Nc2ncccc2S(=O)(=O)c2ccccc2)cc1 | inconclusive: 6.31 µM [activator, full curve] |  |
| Cc1cccc(CC2(O)C(=O)Nc3ccccc32)n1 (stereo not given) | inconclusive: 3.98 µM [inhibitor, partial curve, poor fit] |  |
| CCOC(=O)c1sc(NC(=O)CSc2n[nH]c(CC(C)C)n2)nc1C |  | inactive: -1.81% |
| CCOc1ccc(CN2CCNC(=O)C2CC(=O)NCCCC2CCCC2)cc1 (stereo not given) |  | inactive: 10.3% |
| CCCCc1ccc(NC(=O)CC(C)C)cc1 | inconclusive: 31.6 µM [activator, single point] |  |
| COC(=O)C1=C(N)OC2=C(C(=O)CC(C)(C)C2)C1c1cccs1 (stereo not given) | inconclusive: 0.164 µM [activator, single point] |  |
| COc1ccc(N2CCCn3c2nc2c3c(=O)n(Cc3ccccc3)c(=O)n2C)c(OC)c1 | inconclusive: 3.55 µM [inhibitor, partial curve] |  |
| ON=C1c2ccccc2-c2ccc(F)cc21 |  | inactive: 3.47% |
| CCC(C)NC(=O)Cn1c(=O)n(Cc2ccc(C(=O)NCCCOC)cc2)c(=O)c2ccccc21 (stereo not given) |  | inactive: 16.5% [at 46.1 µM] |
| CCS(=O)(=O)Nc1ccc(-c2ccc(NS(=O)(=O)CC)c(OC)c2)cc1OC | inconclusive: 3.98 µM [inhibitor, full curve, poor fit] |  |

Reference: PubChem BioAssay AID540276 (National Center for Advancing Translational Sciences (NCATS), 2011)
